Data published in patent US20230174623A1.
No constants are given. Whether binding was seen depends on the method and setting. A result given as binding can be weak or reduced; the word gives no strength. Tags and fused reporters may be left off the sequences shown.

Tests used:
[1] = target: collagen type I (collagen I coated 96 well-plates, Gibco); experiment: closing sentence of the example on its collagen binding assay
[2] = target: collagen type IV (collagen IV coated 96 well-plates, Corning); experiment: as above

B1: Lumican-MSA-Fc-III-4C (protein)
chain: QYYDYDIPLFMYGQISPNCAPECNCPHSYPTAMYCDDLKLKSVPMVPPGIKYLYLRNNQIDHIDEKAFENVTDLQWLILDHNLLENSKIKGKVFSKLKQLKKLHINYNNLTESVGPLPKSLQDLQLTNNKISKLGSFDGLVNLTFIYLQHNQLKEDAVSASLKGLKSLEYLDLSFNQMSKLPAGLPTSLLTLYLDNNKISNIPDEYFKRFTGLQYLRLSHNELADSGVPGNSFNISSLLELDLSYNKLKSIPTVNENLENYYLEVNELEKFDVKSFCKILGPLSYSKIKHLRLDGNPLTQSSLPPDMYECLRVANEITVNGGGSGGGSEAHKSEIAHRYNDLGEQHFKGLVLIAFSQYLQKCSYDEHAKLVQEVTDFAKTCVADESAANCDKSLHTLFGDKLCAIPNLRENYGELADCCTKQEPERNECFLQHKDDNPSLPPFERPEAEAMCTSFKENPTTFMGHYLHEVARRHPYFYAPELLYYAEQYNEILTQCCAEADKESCLTPKLDGVKEKALVSSVRQRMKCSSMQKFGERAFKAWAVARLSQTFPNADFAEITKLATDLTKVNKECCHGDLLECADDRAELAKYMCENQATISSKLQTCCDKPLLKKAHCLSEVEHDTMPADLPAIAADFVEDQEVCKNYAEAKDVFLGTFLYEYSRRHPDYSVSLLLRLAKKYEATLEKCCAEANPPACYGTVLAEFQPLVEEPKNLVKTNCDLYEKLGEYGFQNAILVRYTQKAPQVSTPTLVEAARNLGRVGTKCCTLPEDQRLPCVEDYLSAILNRVCLLHEKTPVSEHVTKCCSGSLVERRPCFSALTVDETYVPKEFKAETFTFHSDICTLPEKEKQIKKQTALAELVKHKPKATAEQLKTVMDDFAQFLDTCCKAADKDTCFSTEGPNLVTRCKDALAGGGSCDCAWHLGELVWCTCHHHHHH
- binding [1]: binds
- binding [2]: binds

B2: WGRR-MSA-Lumican (protein)
chain: QYYDYDIPLFMYGQISPNCAPECNCPHSYPTAMYCDDLKLKSVPMVPPGIKYLYLRNNQIDHIDEKAFENVTDLQWLILDHNLLENSKIKGKVFSKLKQLKKLHINYNNLTESVGPLPKSLQDLQLTNNKISKLGSFDGLVNLTFIYLQHNQLKEDAVSASLKGLKSLEYLDLSFNQMSKLPAGLPTSLLTLYLDNNKISNIPDEYFKRFTGLQYLRLSHNELADSGVPGNSFNISSLLELDLSYNKLKSIPTVNENLENYYLEVNELEKFDVKSFCKILGPLSYSKIKHLRLDGNPLTQSSLPPDMYECLRVANEITVNGGGSGGGSEAHKSEIAHRYNDLGEQHFKGLVLIAFSQYLQKCSYDEHAKLVQEVTDFAKTCVADESAANCDKSLHTLFGDKLCAIPNLRENYGELADCCTKQEPERNECFLQHKDDNPSLPPFERPEAEAMCTSFKENPTTFMGHYLHEVARRHPYFYAPELLYYAEQYNEILTQCCAEADKESCLTPKLDGVKEKALVSSVRQRMKCSSMQKFGERAFKAWAVARLSQTFPNADFAEITKLATDLTKVNKECCHGDLLECADDRAELAKYMCENQATISSKLQTCCDKPLLKKAHCLSEVEHDTMPADLPAIAADFVEDQEVCKNYAEAKDVFLGTFLYEYSRRHPDYSVSLLLRLAKKYEATLEKCCAEANPPACYGTVLAEFQPLVEEPKNLVKTNCDLYEKLGEYGFQNAILVRYTQKAPQVSTPTLVEAARNLGRVGTKCCTLPEDQRLPCVEDYLSAILNRVCLLHEKTPVSEHVTKCCSGSLVERRPCFSALTVDETYVPKEFKAETFTFHSDICTLPEKEKQIKKQTALAELVKHKPKATAEQLKTVMDDFAQFLDTCCKAADKDTCFSTEGPNLVTRCKDALAGGGSWGRRHHHHHH
- binding [1]: binds
- binding [2]: binds

B3: RRGW-MSA-Lumican (protein)
chain: QYYDYDIPLFMYGQISPNCAPECNCPHSYPTAMYCDDLKLKSVPMVPPGIKYLYLRNNQIDHIDEKAFENVTDLQWLILDHNLLENSKIKGKVFSKLKQLKKLHINYNNLTESVGPLPKSLQDLQLTNNKISKLGSFDGLVNLTFIYLQHNQLKEDAVSASLKGLKSLEYLDLSFNQMSKLPAGLPTSLLTLYLDNNKISNIPDEYFKRFTGLQYLRLSHNELADSGVPGNSFNISSLLELDLSYNKLKSIPTVNENLENYYLEVNELEKFDVKSFCKILGPLSYSKIKHLRLDGNPLTQSSLPPDMYECLRVANEITVNGGGSGGGSEAHKSEIAHRYNDLGEQHFKGLVLIAFSQYLQKCSYDEHAKLVQEVTDFAKTCVADESAANCDKSLHTLFGDKLCAIPNLRENYGELADCCTKQEPERNECFLQHKDDNPSLPPFERPEAEAMCTSFKENPTTFMGHYLHEVARRHPYFYAPELLYYAEQYNEILTQCCAEADKESCLTPKLDGVKEKALVSSVRQRMKCSSMQKFGERAFKAWAVARLSQTFPNADFAEITKLATDLTKVNKECCHGDLLECADDRAELAKYMCENQATISSKLQTCCDKPLLKKAHCLSEVEHDTMPADLPAIAADFVEDQEVCKNYAEAKDVFLGTFLYEYSRRHPDYSVSLLLRLAKKYEATLEKCCAEANPPACYGTVLAEFQPLVEEPKNLVKTNCDLYEKLGEYGFQNAILVRYTQKAPQVSTPTLVEAARNLGRVGTKCCTLPEDQRLPCVEDYLSAILNRVCLLHEKTPVSEHVTKCCSGSLVERRPCFSALTVDETYVPKEFKAETFTFHSDICTLPEKEKQIKKQTALAELVKHKPKATAEQLKTVMDDFAQFLDTCCKAADKDTCFSTEGPNLVTRCKDALAGGGSRRGWHHHHHH
- binding [1]: binds
- binding [2]: binds

B4: Sso7d-MSA-Lumican (protein)
chain: ATVKFKYKGEEKQVDISKIYLVLRLGKFIYFYYDLGGGKLGLGHVSEKDAPKELLQMLEKQKKGGGSEAHKSEIAHRYNDLGEQHFKGLVLIAFSQYLQKCSYDEHAKLVQEVTDFAKTCVADESAANCDKSLHTLFGDKLCAIPNLRENYGELADCCTKQEPERNECFLQHKDDNPSLPPFERPEAEAMCTSFKENPTTFMGHYLHEVARRHPYFYAPELLYYAEQYNEILTQCCAEADKESCLTPKLDGVKEKALVSSVRQRMKCSSMQKFGERAFKAWAVARLSQTFPNADFAEITKLATDLTKVNKECCHGDLLECADDRAELAKYMCENQATISSKLQTCCDKPLLKKAHCLSEVEHDTMPADLPAIAADFVEDQEVCKNYAEAKDVFLGTFLYEYSRRHPDYSVSLLLRLAKKYEATLEKCCAEANPPACYGTVLAEFQPLVEEPKNLVKTNCDLYEKLGEYGFQNAILVRYTQKAPQVSTPTLVEAARNLGRVGTKCCTLPEDQRLPCVEDYLSAILNRVCLLHEKTPVSEHVTKCCSGSLVERRPCFSALTVDETYVPKEFKAETFTFHSDICTLPEKEKQIKKQTALAELVKHKPKATAEQLKTVMDDFAQFLDTCCKAADKDTCFSTEGPNLVTRCKDALAGGGSGGGSQYYDYDIPLFMYGQISPNCAPECNCPHSYPTAMYCDDLKLKSVPMVPPGIKYLYLRNNQIDHIDEKAFENVTDLQWLILDHNLLENSKIKGKVFSKLKQLKKLHINYNNLTESVGPLPKSLQDLQLTNNKISKLGSFDGLVNLTFIYLQHNQLKEDAVSASLKGLKSLEYLDLSFNQMSKLPAGLPTSLLTLYLDNNKISNIPDEYFKRFTGLQYLRLSHNELADSGVPGNSFNISSLLELDLSYNKLKSIPTVNENLENYYLEVNELEKFDVKSFCKILGPLSYSKIKHLRLDGNPLTQSSLPPDMYECLRVANEITVNGGGSHHHHHH
- binding [1]: binds
- binding [2]: binds
